Results are given in words; binding and its absence hold for the method and conditions named. In cells and extracts the contact can be indirect. Some entries that bind do so weakly or less than the wild type.
T1: C. elegans p53 (C. elegans), Q20646
T1 chain: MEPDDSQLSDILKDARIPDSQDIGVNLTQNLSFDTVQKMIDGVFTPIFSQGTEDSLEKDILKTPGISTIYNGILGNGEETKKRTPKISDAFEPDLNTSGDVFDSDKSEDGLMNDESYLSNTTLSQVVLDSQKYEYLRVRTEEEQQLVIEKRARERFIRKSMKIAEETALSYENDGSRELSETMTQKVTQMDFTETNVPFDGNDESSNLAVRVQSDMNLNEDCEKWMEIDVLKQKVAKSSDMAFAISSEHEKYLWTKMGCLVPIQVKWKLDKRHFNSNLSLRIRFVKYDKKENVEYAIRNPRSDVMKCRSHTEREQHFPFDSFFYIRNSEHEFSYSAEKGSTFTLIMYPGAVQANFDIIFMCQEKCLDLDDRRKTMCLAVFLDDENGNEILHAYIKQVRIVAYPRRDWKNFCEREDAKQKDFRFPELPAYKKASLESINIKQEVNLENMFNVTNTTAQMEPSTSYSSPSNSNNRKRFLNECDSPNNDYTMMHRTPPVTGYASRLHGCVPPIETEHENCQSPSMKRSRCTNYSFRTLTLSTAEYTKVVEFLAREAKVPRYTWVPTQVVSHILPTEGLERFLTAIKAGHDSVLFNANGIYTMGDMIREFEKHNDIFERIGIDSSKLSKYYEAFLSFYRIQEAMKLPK


Tests used:
human p53 (human) [1] = biological target: human p53 (human) (UniProt P04637); test: summary of the co-immunoprecipitation and cell assays
human p53 (human) [2] = biological target: human p53 (human) (UniProt P04637); test: co-immunoprecipitation of in vitro translated proteins (FIG. 8B)
[3] = biological target: T1, C. elegans p53 (C. elegans), Q20646; test: co-immunoprecipitation of in vitro translated proteins, confirmed by reciprocal immunoprecipitation (FIG. 8B); settings: remark: other sources report otherwise

binding (human p53 (human) [1])	binding (human p53 (human) [2])	binding [3]	Binder
binds	binds	–	C. elegans iASPP (protein, not shown: small tags and cut ends) MVTTSSGGGIGYPANNGVTQVSLIHSSDSVRTVSTAPIYRPTSSMASTMAHKSSTAPFISANQRMSKPPVRVVAQPPPPHPQALSQQYHQQNPMMMYSAPNTRPHVIPTMQVQPTMAAQIKRNNPVNAQFQNPSEMIADYGVKPQSVEMVQRVRAVRRQVADEETELRRLRELEHETAQLQNKNYGRERELNVQGSMLKEAQLELRNASMRAQSLNKHLEEMYRRRQTAAAAALVEQRKMQQHQILLARAANQVSTQEVIRPRASVEPFQVNNTQQQQPSPQMMKSEEFSEKRDLNGQTGSYDAIDGSGDHQKIPTEPSYLAPCKENQQKYSELSKMASTDPHSNHSSPSTSSQKAPTLITFSPPSFEQKINSSTMTRDSPFVERPTSFGDSLDESRLRSGKTDLVSLRSDSLKATKRRSWAASEGTSMSEAEMIHRLLDEQRRGRSHFIPQLPTSQEEPSAITSETYAEEVVNSESKQVATSSDSTNNLELPTEQMVLGSDTTTEEDASSCSTRSDDGQNLEMEVAIERRTVKGILRRPNEKMNKGRIEFDPLALLLDAALEGELDLVRSSASKLTDVSQANDEGITALHNAICAGHYEIVRFLIENDADVNAQDSDGWTPLHCAASCNNLPMVRQLVEGGGCVLASTLSDMETPVEKCEEDEDGYDGCLKYLSAAHNSTGSINTGKVYAAYGYEAAFEDELSFDAGDELTVIEKDKVDKNWWTCEKNNGEKGQVPRTYLALYPSLKYRKKLNFVMFDLPLESNNNVE
–	–	binds	C. elegans iASPP, Q9XVN3 1-769 (protein, not shown: small tags and cut ends) MVTTSSGGGIGYPANNGVTQVSLIHSSDSVRTVSTAPIYRPTSSMASTMAHKSSTAPFISANQRMSKPPVRVVAQPPPPHPQALSQQYHQQNPMMMYSAPNTRPHVIPTMQVQPTMAAQIKRNNPVNAQFQNPSEMIADYGVKPQSVEMVQRVRAVRRQVADEETELRRLRELEHETAQLQNKNYGRERELNVQGSMLKEAQLELRNASMRAQSLNKHLEEMYRRRQTAAAAALVEQRKMQQHQILLARAANQVSTQEVIRPRASVEPFQVNNTQQQQPSPQMMKSEEFSEKRDLNGQTGSYDAIDGSGDHQKIPTEPSYLAPCKENQQKYSELSKMASTDPHSNHSSPSTSSQKAPTLITFSPPSFEQKINSSTMTRDSPFVERPTSFGDSLDESRLRSGKTDLVSLRSDSLKATKRRSWAASEGTSMSEAEMIHRLLDEQRRGRSHFIPQLPTSQEEPSAITSETYAEEVVNSESKQVATSSDSTNNLELPTEQMVLGSDTTTEEDASSCSTRSDDGQNLEMEVAIERRTVKGILRRPNEKMNKGRIEFDPLALLLDAALEGELDLVRSSASKLTDVSQANDEGITALHNAICAGHYEIVRFLIENDADVNAQDSDGWTPLHCAASCNNLPMVRQLVEGGGCVLASTLSDMETPVEKCEEDEDGYDGCLKYLSAAHNSTGSINTGKVYAAYGYEAAFEDELSFDAGDELTVIEKDKVDKNWWTCEKNNGEKGQVPRTYLALYPSLKYRKKLNFVMFDLPLESNNNVE

— patent publication US20060100143A1
